Experimental data published in patent US20040110758A1, “4,6-Diaminosubstituted-2-[oxy or aminoxy]-[1,3,5]triazines as protein tyrosine kinase inhibitors” (priority 2002, published 2004).
At least one structure is not confirmed: it was looked up by name or label, or the drawing left a doubt.

The chains behind the UniProt entries cited, without tags or fusion partners. Residues count along the entry.
UniProt P35968, 20-1356, species assumed: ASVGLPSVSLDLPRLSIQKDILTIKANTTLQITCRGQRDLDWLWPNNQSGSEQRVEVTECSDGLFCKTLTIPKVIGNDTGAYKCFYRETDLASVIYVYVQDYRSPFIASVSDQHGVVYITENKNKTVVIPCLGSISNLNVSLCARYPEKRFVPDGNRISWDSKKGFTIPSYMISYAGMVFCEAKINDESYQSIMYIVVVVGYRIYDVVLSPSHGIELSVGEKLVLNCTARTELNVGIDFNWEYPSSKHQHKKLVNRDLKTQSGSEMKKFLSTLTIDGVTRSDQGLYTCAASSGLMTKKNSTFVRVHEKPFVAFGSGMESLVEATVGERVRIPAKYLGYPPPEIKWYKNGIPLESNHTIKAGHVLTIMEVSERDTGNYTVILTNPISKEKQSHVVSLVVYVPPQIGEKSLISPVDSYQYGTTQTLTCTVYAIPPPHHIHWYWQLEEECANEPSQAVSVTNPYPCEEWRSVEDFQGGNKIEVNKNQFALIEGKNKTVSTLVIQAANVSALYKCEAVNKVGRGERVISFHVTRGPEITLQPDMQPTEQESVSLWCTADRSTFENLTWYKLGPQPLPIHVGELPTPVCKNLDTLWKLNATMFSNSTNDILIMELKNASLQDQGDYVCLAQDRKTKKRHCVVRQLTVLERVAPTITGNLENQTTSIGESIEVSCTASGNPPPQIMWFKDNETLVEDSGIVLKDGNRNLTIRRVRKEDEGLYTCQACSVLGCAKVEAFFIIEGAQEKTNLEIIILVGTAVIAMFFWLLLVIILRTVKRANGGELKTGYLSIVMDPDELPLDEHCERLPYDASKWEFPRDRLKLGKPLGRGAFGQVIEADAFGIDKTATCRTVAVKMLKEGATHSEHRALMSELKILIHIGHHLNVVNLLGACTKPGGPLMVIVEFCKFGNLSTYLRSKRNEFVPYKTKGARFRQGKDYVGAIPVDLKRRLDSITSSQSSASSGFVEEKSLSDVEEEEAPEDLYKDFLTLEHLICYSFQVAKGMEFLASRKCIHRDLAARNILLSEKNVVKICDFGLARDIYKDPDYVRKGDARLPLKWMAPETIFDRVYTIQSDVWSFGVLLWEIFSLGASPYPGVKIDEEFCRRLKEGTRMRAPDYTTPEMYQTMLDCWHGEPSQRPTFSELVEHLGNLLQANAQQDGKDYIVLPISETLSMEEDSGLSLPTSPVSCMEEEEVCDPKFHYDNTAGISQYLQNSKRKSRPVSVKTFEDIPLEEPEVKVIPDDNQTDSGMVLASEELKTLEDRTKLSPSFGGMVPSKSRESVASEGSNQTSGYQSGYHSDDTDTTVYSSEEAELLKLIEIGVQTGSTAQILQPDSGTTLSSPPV

Molecular target: KDR (Homo sapiens, UniProt P35968)
Test: KDR Enzymatic Assay (fluorescence polarization competition immunoassay)
Format: biochemical
Conditions: text commentary on Table 1
Procedure: KDR Enzymatic Assay. A fluorescence polarization competition immunoassay was used to determine the compound potency for KDR. The assay was performed in black 96-well microplates (LJL BioSystems). The assay buffer used was 100 mM HEPES, pH 7.5, 1 mM DTT, 0.01% (v/v) Tween-20. Compounds were diluted in assay buffer containing 4% DMSO just prior to the assay. […] The kinase reaction was initiated by adding 2 μl of 8 nM KDR in assay buffer.
The plates were incubated at room temperature for 5 min. At the end of the incubation, the reaction was quenched with 1.2 μl of 50 mM EDTA. Following a 5-min incubation, each well received 10 μl of a 1:1:3 mixture of anti-phosphotyrosine antibody, 10×, PTK green tracer, 10× (vortexed), FP dilution buffer, respectively (all from PanVera, cat. # P2837). The plate was covered, incubated for 30 min at room temperature and the fluorescence polarization was read on an ANALYST™ HT Assay Detection System (LJL Biosystems, Sunnyvale, Calif.). The instrument settings were: 485 nm excitation filter; 530 nm emission filter; Z height: middle of well; G factor: 0.93. […] The IC50 values reported are the averages of three independent measurements.

SMILES: CC(C)(Nc1nc(NO)nc(Nc2ccc3ncsc3c2)n1)c1ccccc1 [Example 14]
- protein tyrosine kinase (KDR) inhibition, potency in words: potent inhibitor
